Some of the results follow. Cut-off read from the data, not from the text of the source: active = 2-fold of DMSO or more and inactive = the rest. Single values of this set are uncertain. Some low values are a fixed figure set by the source, not a measured ratio.
tested on: CM7/1-hgem mouse ES cell-derived cardiomyocytes; assay: maximal number of mAG-hGem(1/110)-positive cardiomyocytes over 96 h, fold-change vs DMSO; higher = more cardiomyocyte cell cycle activity; conditions: 1 µM; 96 (max over 12 h time points) h

| SMILES | maximal number |
| --- | --- |
| CN(C)C(=O)C(CCN1CCC(O)(c2ccc(Cl)cc2)CC1)(c1ccccc1)c1ccccc1 | inactive: 0 |
| O=c1cc(-c2cc(O)c(O)c(O)c2)oc2cc(O)cc(O)c12 | inactive: 1 |
| COc1cc(C)c2c(c1C=O)Oc1c(c(C)c(O)c3c1C(O)OC3=O)OC2=O (configuration not stated) | inactive: 1 |
| COc1ccc(C(C)=O)c(O)c1 | inactive: 1 |
| CC(O)(CC(=O)O)CC(=O)O | inactive: 1 |
| C=C[C@@]1(C)CC(=O)[C@@]2(O)[C@](C)(O1)[C@@H](O)[C@@H](O)C1C(C)(C)CC[C@H](O)[C@@]12C (some centres not stated) | inactive: 1 |
| O=C1C=C(O)C(=O)c2ccccc21 | inactive: 1 |
| CCOC(=O)COc1ccc2c(=O)cc(-c3ccccc3)oc2c1 | inactive: 1 |
| CO/N=C(\C(=O)N[C@@H]1C(=O)N2C(C(=O)O)=C(C[N+]3(C)CCCC3)CS[C@H]12)c1csc(N)n1 | inactive: 1 |
| COc1ccc(/C=C/C(=O)O)cc1OC | inactive: 0.5 |
| Cc1cc(O)c2c(c1)C(=O)c1cc(O)cc(O)c1C2=O | inactive: 0 |
| O=C1CC[C@@H](C(=O)O)N1 | inactive: 1 |
| CCCCCCCCCCCCC[N+](C)(C)Cc1ccccc1 | inactive: 1 |
| C/C1=C\CC(C)(C)/C=C/CC2(C)OC2CC1 (configuration not stated) | inactive: 1 |
| O=C(/C=C/c1ccc(O)c(O)c1)O[C@@H]1C[C@](O)(C(=O)O)C[C@@H](O)[C@H]1O | inactive: 1 |
| C=C1C(N)CC2CC1C2(C)C (stereo not drawn) [3-AMINO-beta-PINENE] | inactive: 1 |
| COC(=O)C1=C(C)NC(C)=C(C(=O)OCCN2CCN(C(c3ccccc3)c3ccccc3)CC2)C1c1cccc([N+](=O)[O-])c1 (configuration not stated) | inactive: 0 |

Part of the list above in a different format:
SMILES | maximal number
COc1cc(C)c2c(c1C=O)Oc1c(c(C)c(O)c3c1C(O)OC3=O)OC2=O (configuration not stated) | inactive: 1
COc1ccc(C(C)=O)c(O)c1 | inactive: 1
